Experimental data: patent publication US20100331233A1, “CRYSTAL OF XPA AND ERCC1 COMPLEX AND USES THEREOF” (priority 2007, published 2010)
No constants are given. Whether binding was seen depends on the method and setting. Some entries that bind do so weakly or less than the wild type. Sequences can lack the tags named with a protein.

The chains behind the UniProt entries cited, without tags or fusion partners. Where a name states a change or a piece, a line headed by the entry shows the natural chain unless it says otherwise.
UniProt P23025: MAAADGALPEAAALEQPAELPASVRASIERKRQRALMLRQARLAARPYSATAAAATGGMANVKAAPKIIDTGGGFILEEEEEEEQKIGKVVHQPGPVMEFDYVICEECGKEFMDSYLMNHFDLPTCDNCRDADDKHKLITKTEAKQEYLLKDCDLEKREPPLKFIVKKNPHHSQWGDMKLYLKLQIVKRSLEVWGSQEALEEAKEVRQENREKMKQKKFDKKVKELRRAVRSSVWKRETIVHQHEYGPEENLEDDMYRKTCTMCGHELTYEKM

Legend:
[1] = biological target: T1, ERCC192-214 (central domain of ERCC1, N-terminal His6 tag); test: gel filtration (S-100) and SDS-PAGE of the peak fractions
T1 sequence: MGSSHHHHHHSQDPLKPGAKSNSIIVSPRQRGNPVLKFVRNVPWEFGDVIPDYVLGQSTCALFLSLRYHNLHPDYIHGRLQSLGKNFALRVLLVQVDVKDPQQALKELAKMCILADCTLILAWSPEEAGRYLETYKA

[2] = biological target: T1, ERCC192-214 (central domain of ERCC1, N-terminal His6 tag); test: gel filtration (S100) of the complex; ERCC1 central domain construct (92-214 or 96-214) not specified

binding [1]: binds | binding [2]: binds
Substance: XPA59-219 (from UniProt P23025 59-219)
